No constants are given. Whether binding was seen depends on the method and setting. Binding seen in cells or lysates may run through a third protein. Some binding calls cover weakened binding; strength is not graded here.

The assay addresses basic leucine zipper 63 (bZIP63) transcription factor, BiFC constructs (UniProt B9DGI8). The assay is described as follows: split reporter; split YFP (YFP-N 1-155, YFP-C 155-239) constructs co-expressed in hot pepper protoplasts by PEG-mediated transformation; YFP signal read by fluorescence microscopy.

B1: basic leucine zipper 63 (bZIP63) transcription factor, BiFC constructs (protein, UniProt B9DGI8 1-314)
chain: MEKVFSDEEISGNHHWSVNGMTSLNRSASEWAFNRFIQESSAAADDGESTTACGVSVSSPPNVPVDSEEYRAFLKSKLNLACAAVAMKRGTFIKPQDTSGRSDNGGANESEQASLASSKATPMMSSAITSGSELSGDEEEADGETNMNPTNVKRVKRMLSNRESARRSRRRKQAHLSELETQVSQLRVENSKLMKGLTDVTQTFNDASVENRVLKANIETLRAKVKMAEETVKRLTGFNPMFHNMPQIVSTVSLPSETSNSPDTTSSQVTTPEIISSGNKGKALIGCKMNRTASMRRVESLEHLQKRIRSVGDQ
As to B1, the binding result was “binds”.
